Assay results: paper PMC9191731
These are yes or no findings as the source states them, for the method shown. Binding seen in cells or lysates may run through a third protein. For part of these data: Sequences can lack the tags named with a protein.

Columns and labels:
[1] = biological target: T1, tripartite motif-containing 41 (TRIM41) (mouse (endogenous in testis)) (UniProt Q5NCC3); test: co-IP; anti-TRIM41 antibody on Protein G magnetic beads; WT or Trim41ΔRING/ΔRING testis lysate in NP40 lysis buffer (50 mM Tris-HCl pH 7.5, 150 mM NaCl, 0.5% NP-40, 10% glycerol); 1 h at 4°C; SYCP3 immunoblot of the eluate
T1 sequence: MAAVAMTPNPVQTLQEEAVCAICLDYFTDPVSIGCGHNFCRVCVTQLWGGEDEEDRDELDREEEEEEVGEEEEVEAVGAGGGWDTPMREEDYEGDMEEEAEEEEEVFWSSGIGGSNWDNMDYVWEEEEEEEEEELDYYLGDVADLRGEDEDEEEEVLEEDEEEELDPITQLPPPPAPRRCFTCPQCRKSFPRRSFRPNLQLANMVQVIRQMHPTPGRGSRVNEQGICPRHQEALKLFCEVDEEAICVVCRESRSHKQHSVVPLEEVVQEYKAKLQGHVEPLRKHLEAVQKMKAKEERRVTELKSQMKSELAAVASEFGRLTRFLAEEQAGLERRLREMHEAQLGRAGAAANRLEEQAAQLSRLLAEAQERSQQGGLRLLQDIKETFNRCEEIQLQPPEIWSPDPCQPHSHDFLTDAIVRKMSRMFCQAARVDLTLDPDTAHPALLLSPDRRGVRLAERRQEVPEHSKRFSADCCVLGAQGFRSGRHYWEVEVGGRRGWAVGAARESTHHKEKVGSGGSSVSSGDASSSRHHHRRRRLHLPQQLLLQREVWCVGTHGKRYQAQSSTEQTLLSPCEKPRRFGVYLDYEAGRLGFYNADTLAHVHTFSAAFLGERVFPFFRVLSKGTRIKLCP

[2] = biological target: T2, HA-ΔRING-TRIM41 (mouse (endogenous in testis)) (UniProt Q5NCC3); test: as above
T2 sequence: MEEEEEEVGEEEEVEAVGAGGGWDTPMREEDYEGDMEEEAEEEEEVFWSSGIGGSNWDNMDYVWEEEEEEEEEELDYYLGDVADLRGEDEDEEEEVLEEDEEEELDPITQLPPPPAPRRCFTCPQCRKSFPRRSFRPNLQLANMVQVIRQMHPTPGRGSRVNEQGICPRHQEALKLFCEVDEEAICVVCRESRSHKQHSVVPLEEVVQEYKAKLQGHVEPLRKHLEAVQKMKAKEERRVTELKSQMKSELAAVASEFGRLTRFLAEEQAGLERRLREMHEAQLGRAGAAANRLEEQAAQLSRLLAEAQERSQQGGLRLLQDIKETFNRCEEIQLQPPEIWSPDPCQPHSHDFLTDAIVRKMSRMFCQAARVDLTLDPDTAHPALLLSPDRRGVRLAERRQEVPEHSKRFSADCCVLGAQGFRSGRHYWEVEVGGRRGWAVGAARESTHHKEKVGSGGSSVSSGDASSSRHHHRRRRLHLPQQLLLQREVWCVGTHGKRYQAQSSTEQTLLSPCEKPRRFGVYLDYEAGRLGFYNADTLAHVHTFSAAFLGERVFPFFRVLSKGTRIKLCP

[3] = biological target: T2, HA-ΔRING-TRIM41 (mouse (endogenous in testis)); test: co-IP; anti-HA antibody on Protein G magnetic beads; Trim41ΔRING/ΔRING testis lysate in NP40 lysis buffer (50 mM Tris-HCl pH 7.5, 150 mM NaCl, 0.5% NP-40, 10% glycerol); 1 h at 4°C; SYCP3 immunoblot of the eluate

Measured: binding

B1: synaptonemal complex protein 3 (SYCP3) (protein, UniProt P70281 1-254)
chain: MLRGCGDSDSSPEPLSKHLKMVPGGRKHSGKSGKPPLVDQPKKAFDFEKDDKDLSGSEEDVADEKAPVIDKHGKKRSAGIIEDVGGEVQNMLEKFGADINKALLAKRKRIEMYTKASFKASNQKIEQIWKTQQEEIQKLNNEYSQQFMNVLQQWELDIQKFEEQGEKLSNLFRQQQKIFQQSRIVQSQRMFAMKQIHEQFIKSLEDVEKNNDNLFTGTQSELKKEMAMLQKKVMMETQQQEMANVRKSLQSMLF
no binding: [1] | [2] | [3]
